Assay results taken from patent publication US20080153792A1, “Drug Identification and Treatment Method” (priority 2006, published 2008).
At least one compound was matched to its structure with a doubt left.

What was measured:
[1] = tested on: BALB/C mice, TNP-OVA sensitized; assay: reporter antigen popliteal lymph node (PLN) assay; type: in vivo, mouse; settings: compound 1.0 mg/day and 0.1 mg/day oral; dexamethasone 5 μg/day s.c.
Source text: Analysis of immune suppression. Glucocorticoid steroids such as dexamethasone or hydrocortisone are typically immune suppressive and have significant toxicities associated with their use. Immune suppression was examined in a reporter antigen popliteal lymph node assay in mice essentially as previously described (C. Goebel et al., Inflamm. Res., 45(Suppl. 2):S85-S90, 1996; R. Pieters et al., Environmental Health Perspectives 107(Suppl. 5):673-677,1999). […] In this protocol, the vehicle was 0.1% carboxymethylcellulose, 0.9% saline, 2% tween 80 and 0.05% phenol, which contained 17α-ethynylandrost-5-ene-3β,7β,17β-triol in suspension in drug treated animals. Assessment of activity included (1) measuring suppression of numbers of total lymphocytes, antigen specific IgM, IgG1 and IgG2a antibody secreting cells (ASC) (ELISPOT assay) in popliteal lymph node cells; (2) analysis of cell surface marker (CD4, CD8, CD19, F480, CD80, CD86) expression by flow cytometry of living cells in suspension; and (3) IL-4, TNFα and IFNγ production by lymphocytes in vitro (ELISA).
Groups (n=5 per group) of specific pathogen free BALB/C mice were used. […] The results were analyzed by two-tailed Student's t-test with equal variance. […] Single cell suspensions were prepared, resuspended in 1 mL PBS-BSA (1%) and counted. Cell numbers, IL-4, IL-5 and IFNγ were measured.

NF-kB = settings: reported in other in vitro cell assays; read-out: IC50, complete inhibition of NF-kB activation; cited from earlier work
[2] = tested on: osteoblasts and osteocytes in murine vertebral bone; assay: osteoblast and osteocyte apoptosis in ovariectomized mice (TUNEL); type: in vivo, mouse; settings: ovariectomized Swiss Webster mice
Source text: The degree of apoptosis of osteoblasts and osteocytes in murine vertebral bone as a function of estrogen deficiency was examined. Swiss Webster mice (four months old) were ovariectomized. Twenty-eight days later, the animals were sacrificed, vertebrae were isolated, fixed and embedded, and then undecalcified in methacrylate.

SMILES | IFNγ, IL-4 and IL-5 levels compared to the vehicle control group [1] | IC50 (NF-kB) | osteoblast and osteocyte apoptosis [2]
C[C@@H]1C[C@H]2[C@@H]3CCC4=CC(=O)C=C[C@]4(C)[C@@]3(F)[C@@H](O)C[C@]2(C)[C@@]1(O)C(=O)CO [dexamethasone, reference compound] | reduced | ~1 nM | 
C[C@]12CC[C@@H]3c4ccc(O)cc4CC[C@H]3[C@@H]1CC[C@@H]2O [estradiol, reference compound] |  |  | reduce apoptosis
